# Laboratory results: PubChem BioAssay AID652054 (National Center for Advancing Translational Sciences (NCATS), 2013)
# Sequences of proteins named here, by UniProt entry; tags and fusion partners are left off.
# UniProt P35462, whole entry, looked up: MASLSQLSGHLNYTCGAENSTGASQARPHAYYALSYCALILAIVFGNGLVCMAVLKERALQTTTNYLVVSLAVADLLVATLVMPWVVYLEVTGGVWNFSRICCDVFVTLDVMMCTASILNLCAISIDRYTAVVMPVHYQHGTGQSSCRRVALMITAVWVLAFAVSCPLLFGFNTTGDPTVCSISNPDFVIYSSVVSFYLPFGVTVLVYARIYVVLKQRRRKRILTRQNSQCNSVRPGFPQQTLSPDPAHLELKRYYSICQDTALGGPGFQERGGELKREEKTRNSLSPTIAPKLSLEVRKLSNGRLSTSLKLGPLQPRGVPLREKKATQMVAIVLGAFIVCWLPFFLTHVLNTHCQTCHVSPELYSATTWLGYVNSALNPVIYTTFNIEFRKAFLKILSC
# About 9,100 (2.5%) of roughly 360,000 compounds were called active. The shares of active, inactive and inconclusive entries below differ from those in the screen. No stated cut-off is given here; in the data, active means max response below about -50%; inconclusive means no clear call, values can overlap the other calls; inactive means above that.
# Biological target: D(3) dopamine receptor (Homo sapiens) (UniProt P35462)
# Test: qHTS of D3 Dopamine Receptor Antagonist: qHTS
# Details: D3R cells, DiscoveRx beta-arrestin luminescence, antagonist mode; active compounds read low
# How it was run: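 Cells expressing the human receptor were seeded at 1500 cells/well, incubated overnight at 37 degrees C in 5% CO2, then exposed to library compounds with dopamine controls for 90 minutes at 37 degrees C before luminescent detection.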
# On the % scale 0 is the no-effect control and ±100 the full control effect.
row,SMILES,"max response, negative = inhibition"
1,CC(=O)Nc1ccc(NC(=O)CCC(=O)OCC(=O)c2ccc(C)c([N+](=O)[O-])c2)cc1,inconclusive: -37.7%
2,COc1ccc(C2c3c4c(n(C)c3CCN2C)CCN(C)C4c2ccc(OC)cc2)cc1 (configuration not stated),inactive: 7.47%
3,CCc1nc2ccc(C(=O)NCCOc3ccc(OC)cc3)cn2c1N(CCC(C)C)CCN(C)C,active: -89.3%
4,COc1c(Cl)cc(C(=O)Nc2cccnc2)cc1Cl,inactive: 0%
5,Cn1c(-c2ccccc2)cnc1N,active: -117%
6,Cn1c(O)c(C2=c3ccccc3=NC2=O)[nH]c1=S,inconclusive: -39%
7,COc1cc(Cl)c(NC2=CC(=O)C(=O)c3ccccc32)c(OC)c1,inconclusive: -37.5%
8,CC1(C)CC(=O)C2=C(C1)NC1=C(C(=O)c3ccccc31)C2c1ccc(O)cc1 (configuration not stated),inconclusive: -38.2%
9,Cc1cc(NC(=O)CCC(=O)N(Cc2ccco2)C(C)(C)C(=O)NC2CCCCC2)no1,inconclusive: -40.5%
10,O=C(N/N=C/c1cc(Cl)cc([N+](=O)[O-])c1O)c1ccccc1NS(=O)(=O)c1cccs1,inconclusive: -35.3%
11,CC(=O)c1cccc(NC(=O)CCS(=O)(=O)c2cccc3nsnc23)c1,inconclusive: -33.9%
12,Cc1nc2c(OCCOc3ccc(F)cc3)cccn2c1N(C)C(=O)CCC1CCCC1,inactive: 27.1%
13,CC1C/C(=C\c2ccccc2[N+](=O)[O-])c2nc3ccccc3c(C(=O)O)c2C1 (configuration not stated),inactive: 17%
14,Cc1ccc2c(c1)C1CN(C)CCC1N2S(=O)(=O)c1ccc(C#N)cc1 (configuration not stated),inconclusive: -33.1%
15,CC(NC(=O)C(=O)c1cn(CC(=O)N2CCOCC2)c2ccccc12)c1ccccc1 (configuration not stated),inactive: 3.72%
16,CCCCC(=O)OCC(=O)Nc1cccc(S(=O)(=O)NC2=NCCCCC2)c1,inactive: -10.2%
17,COc1ccc(N2Nc3n[nH]c(N)c3N2)cc1,inconclusive: -43.1%
18,CS(=O)(=O)N1CCC(C(=O)NCCN2CCN(Cc3ccccc3)CC2)CC1,active: -101%
19,CCOc1ccc(NC(=O)CNC(=O)c2cccs2)cc1,inconclusive: -41.3%
21,CCN(CC)CCOC(=O)C(Cc1ccco1)Cc1cccc2ccccc12 (configuration not stated),inconclusive: -44.2%
22,O=C(NCc1ccc(Cl)cc1)c1cc2c(nc3sccn32)s1,inconclusive: -31.5%

# Fetched by compound from the list above, seven records:
row,SMILES,"max response, negative = inhibition"
9,Cc1cc(NC(=O)CCC(=O)N(Cc2ccco2)C(C)(C)C(=O)NC2CCCCC2)no1,inconclusive: -40.5%
6,Cn1c(O)c(C2=c3ccccc3=NC2=O)[nH]c1=S,inconclusive: -39%
19,CCOc1ccc(NC(=O)CNC(=O)c2cccs2)cc1,inconclusive: -41.3%
22,O=C(NCc1ccc(Cl)cc1)c1cc2c(nc3sccn32)s1,inconclusive: -31.5%
21,CCN(CC)CCOC(=O)C(Cc1ccco1)Cc1cccc2ccccc12 (configuration not stated),inconclusive: -44.2%
16,CCCCC(=O)OCC(=O)Nc1cccc(S(=O)(=O)NC2=NCCCCC2)c1,inactive: -10.2%
7,COc1cc(Cl)c(NC2=CC(=O)C(=O)c3ccccc32)c(OC)c1,inconclusive: -37.5%

# (continued)

row,SMILES,"max response, negative = inhibition"
1,Cn1c(=O)n(Cc2ccccc2F)c(=O)c2c1nc1n2CCCN1CCc1ccccc1,inconclusive: -48.4%
2,COc1ccc(OCc2n(CC(=O)OC3CC(C)CCC3C(C)C)c3ccccc3[n+]2C)cc1 (configuration not stated),inconclusive: -30%
3,CCN(CC)c1ccc(NC(=O)CN2C(=O)CSc3ncccc32)c(C)c1,inactive: 10.2%
4,CCOc1cccc(C(=O)N2CCCCC2c2cccnc2)c1 (configuration not stated),inactive: 4.5%
5,Cc1nn(CCc2nn[nH]n2)c2nc(-c3ccc(C4CCCCC4)cc3)cc(C(F)(F)F)c12,inactive: 14.3%
6,Cc1cc(C)c(OCCOCCN2CCNCC2)c(C)c1,inconclusive: -33.1%
7,CCc1cccc(CC)c1NC(=O)CN1CCN(c2ccccc2)CC1,active: -76.1%
8,CCCCNc1ccc2c(c1)C1CC2CCN1C(=O)OCc1ccccc1 (configuration not stated),inconclusive: -37.8%
9,CC(C)(C)c1nnc(SCC(=O)Nc2ccc(N3CCCCC3)cc2)n1N,inactive: -16.2%
10,COc1ccc2nc(Sc3c([N+](=O)[O-])nc(C)n3Cc3ccccc3)[nH]c2c1,active: -75.4%
11,Clc1ccc(CN2CC[C@H]3C=CCc4cccc(c43)C2)cc1,active: -84.3%
12,O=C(c1cn(-c2ccccc2)nc1-c1ccncc1)n1nnc2ccccc21,inconclusive: -38.5%
13,O=C(Nc1ccc2nn(-c3ccccc3)nc2c1)c1ccc2c(c1)OCCO2,inactive: 0%
14,COc1ccc2ccc3c(c2c1)N=C[C@]1(O3)N(C)c2ccccc2C1(C)C,active: -70.3%
15,O=C(NNc1cc(N2CCOCC2)nc(N2CCOCC2)n1)c1ccc(Cl)c(Cl)c1,inactive: -8.63%
16,CCOc1ccc(C2=Nn3c(nnc3-c3cccnc3)SC2)cc1,inconclusive: -49.6%
17,O=C(Cc1cccc(NC(=O)C2CCN(C(=O)C3CCCC3)CC2)c1)Nc1cccc(C(=O)N2CCOCC2)c1,inactive: -4.44%
18,COc1ccc2c(c1)-c1nc(NC(=O)c3cccs3)sc1CC2,inconclusive: -46.4%
19,C=CCNC(=S)NNC(=O)c1cccn(Cc2ccc(Cl)cc2)c1=O,active: -66.5%
20,Cc1ccc(-c2noc(CCC(=O)NCC3CCCO3)n2)cc1 (configuration not stated),inactive: -4.92%
21,COc1ccc(Oc2nccc(-c3ccccc3)c2C#N)cc1,inconclusive: -43.9%
22,C[C@H]1COC(=O)[C@H](Cc2ccc(F)cc2)C/C=C\C[C@@H](CC(=O)N(CCO)Cc2ccccc2)C(=O)N1,inactive: 28.2%

row,SMILES,"max response, negative = inhibition"
1,CN(C)C(CNC(=O)c1cccc(S(=O)(=O)Nc2ccc(Br)cc2)c1)c1ccco1 (configuration not stated),inconclusive: -37.7%
2,CCN1CCN(Cc2ccc(OC)c(OCc3ccccc3)c2)CC1,inconclusive: -40.8%
3,COC(=O)c1cc(C(=O)Nc2ccc(C)cn2)cc([N+](=O)[O-])c1,inconclusive: -38.1%
4,Cc1nc2ccccc2c2oc(C(=O)NCCCN3CCC(C)CC3)cc12,inconclusive: -39.4%
5,CCN(CC)CC(=O)Nc1cc(N(C)C)nc2ccccc12,inactive: 1.91%
6,COc1ccccc1C(=O)CSc1nccn1C,inconclusive: -37.1%
7,O=C1N[C@@H](Cc2ccccc2)COC(=O)[C@H](Cc2ccc(F)cc2)C/C=C\C[C@@H]1CC(=O)N(CCO)Cc1ccccc1,active: -65.1%
8,Cc1csc(N/N=C/c2ccc([N+](=O)[O-])cc2)n1,inactive: -13.6%
9,CC(c1nnnn1C(C)(C)C)N(Cc1cccnc1)Cc1ccccc1Cl (configuration not stated),inactive: 5.89%
10,CSc1nnc(CCCCCCCCc2nnc(SC)o2)o1,inactive: -1.38%
11,c1cnc2ncc3sccc3c2c1,inactive: 5.99%
12,FC(F)(F)c1cccc(NC(=S)N(CCCN2CCCC2)Cc2cccn2Cc2ccc(Cl)cc2)c1,inconclusive: -47.4%
13,O=C(Nc1ccc[n+](CC(=O)c2cccc3ccccc23)c1)c1ccccc1,inconclusive: -34.2%
14,Cc1c(C)n(CC(O)CN2CCCCC2)c2ccccc12 (configuration not stated),inconclusive: -32.1%
15,COC(=O)c1ccc(C)c(NS(=O)(=O)c2ccc(OC)c(OC)c2)c1,active: -70%
16,O=C(NN=C1CCCCCC1)c1c[nH]c2ccccc12,inconclusive: -43.4%
17,COc1ccc(-c2nc3n(n2)C(c2ccncc2)C(C(N)=O)=C(C)N3)cc1 (configuration not stated),active: -59.1%
18,CCOc1ccc(-c2noc(COC)n2)cc1OC,inconclusive: -39.4%
19,O=C(CCS(=O)(=O)Cc1ccccc1)N1CCN(Cc2ccccc2)CC1,inconclusive: -30.6%
20,COc1ccc(NC(=O)c2cc(S(=O)(=O)Nc3ccc(OC)cc3)cs2)cc1,inactive: -11.5%
21,CC1CCN(C(=O)C2CCN(S(=O)(=O)c3ccc(-n4cnnn4)cc3)CC2)CC1,inactive: 8.18%
22,CC1CCC(C(=O)c2c(O)c3ccccc3oc2=O)CC1 (configuration not stated),inconclusive: -35.8%

row,SMILES,"max response, negative = inhibition"
1,COC(=O)Nc1ccc(S(=O)(=O)NCc2ccccn2)cc1,inactive: 8.55%
2,COc1ccccc1-c1cc(C(F)(F)F)n2ncc(C(=O)N3CCc4ccccc4C3)c2n1,inactive: 2.62%
3,Cc1ccc2[nH]c(C(=O)O)c(NC(=O)CN3CCN(c4cccc(C)c4C)CC3)c2c1,inconclusive: -49.3%
4,COC(=O)c1ccc(Cl)c(NS(=O)(=O)c2ccc3c(c2)OCCO3)c1,inconclusive: -33.9%
5,O=C1CCC2CN3CCc4c([nH]c5ccccc45)C3CC2C1 (configuration not stated),active: -89.5%
6,c1coc(Cn2nnnc2CN2CCN(C3CCCCC3)CC2)c1,inconclusive: -36.3%
7,CC1CCc2sc(C(=O)NCC(c3ccco3)N3CCCCC3)cc2C1 (configuration not stated),active: -82.1%
8,O=C(CN1CCCCCC1)Nc1ccccc1OC(F)F,inconclusive: -33.5%
9,CCOC(=O)C1=CCC2C(=O)N(Cc3ccccc3)C(=O)C12 (configuration not stated),inconclusive: -40%
10,COc1ccc(OC)c(C(c2nnnn2Cc2ccccc2)N2CCN(C3CCCCC3)CC2)c1 (configuration not stated),inconclusive: -32%
11,COc1ccccc1Oc1nc2c(c(=O)n(Cc3ccccc3F)c(=O)n2C)n1C,inconclusive: -41.6%
12,O=Cc1c(SCCO)nc2ccccn2c1=O,inactive: 10.1%
13,CCN1CCCC(OC(=O)Nc2ccccc2)C1 (configuration not stated),inconclusive: -30.2%
14,O=C(c1cc(-c2cccs2)on1)N1CCN(c2ccc(F)cc2)CC1,inactive: 21.4%
15,Cc1cc(C)c(Cn2c(=O)[nH][nH]c2=O)cc1Cn1c(=O)[nH][nH]c1=O,inconclusive: -31.9%
16,COc1ccc(S(=O)(=O)N2CCCN(CC(=O)Nc3ccccc3F)CC2)cc1,inactive: -25.8%
17,CCN(CC)C(=O)C1=C(C)N(Cc2ccc(C(C)(C)C)cc2)C(=O)C(CC(=O)NCc2cccc3ccccc23)C1 (configuration not stated),inconclusive: -33.6%
18,O=C(N[C@@H](Cc1ccccc1)C(=O)OCc1ccccc1)c1nc[nH]c1C(=O)NC1CCNCC1,inconclusive: -44.1%
19,Cc1nn(-c2ccccc2)c(Cl)c1/C=N/NS(=O)(=O)c1ccc(Br)cc1,inconclusive: -32.2%
20,Cc1ccc(-c2nnc3n2N=C(c2ccccc2)CS3)cc1,inconclusive: -33.3%
21,COc1ccc(N2CCN(C(=O)c3cc(-c4ccc(F)cc4)[nH]c3C)CC2)cc1,inactive: -17.1%
